From article PMC10729819

Molecular target: T1, GFP–S100A11 (S100 Ca2+-binding protein A11) (human) (UniProt P31949)
T1 sequence: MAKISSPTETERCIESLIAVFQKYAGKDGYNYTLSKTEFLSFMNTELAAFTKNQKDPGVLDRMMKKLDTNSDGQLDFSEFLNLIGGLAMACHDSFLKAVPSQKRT
Experiment: co-IP; GFP-Trap beads on cleared lysates of clonal MCF-10A cells stably expressing GFP–S100A11, arrested in metaphase; mild lysis buffer (50 mM Tris-HCl pH 7.4, 150 mM NaCl, 0.5 mM EDTA, 10 mM NaF, 1 mM Na3VO4, 0.5% NP40); western blotting of the immunoprecipitates

Substance: E-cadherin (human (endogenous in MCF-10A))
- binding: binds

No constants are given. Whether binding was seen depends on the method and setting. Binding seen in cells or lysates may run through a third protein. A result given as binding can be weak or reduced; the word gives no strength. Sequences can lack the tags named with a protein.
